Laboratory results: PubChem BioAssay AID1259297 (Sanger Institute, 2017)
Screen: 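Kinase knock-downs that lower colorectal cancer cell viability or act with drugs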 (primary screen). Cells: human RCM1 colorectal cancer cell line. Knock-down reagent: siRNA pool against human genes. Conditions: separate arms: DMSO vehicle, or one anchor drug at a mild dose: BYL719 1 µM, cetuximab 5 µg/ml, trametinib 10 nM. Measured: 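Replicate-mean well viability as a share of non-targeting pool control, a robust z-score without drug, and synergy scores for BYL719, cetuximab and trametinib arms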. Reading the numbers: viability z-score, knock-down alone: higher = more viable cells than non-targeting controls; viability, knock-down alone (DMSO): higher = more viable cells; synergy score with trametinib: higher = stronger combined killing with trametinib; synergy score with BYL719: higher = stronger combined killing with BYL719; synergy score with cetuximab: higher = stronger combined killing with cetuximab. Active means: 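Called essential if knock-down without drug gives a viability robust z-score under -3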. Calls: active = essential when knocked down alone; inactive = no clear loss of viability alone.
This is an unselected part of 794 reagents tested. Over the whole deposit, 13 (1.6%) got an active call. 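Calls reflect knock-down without drug only; drug synergy is judged separately, with scores above 0.15 counted as synergy.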 Entries without a mark were called inactive. The numbers tell different reagents against one gene apart. No viability above 1 is reported: the scale is capped. Not stated in the record: the amount of reagent, the time to read-out.

gene	pool no.	viability z-score, knock-down alone	viability, knock-down alone (DMSO) (fraction of control)	synergy score with trametinib	synergy score with BYL719	synergy score with cetuximab
EPHB1	1	-1.28	0.798	-0.028	-0.088	-0.057
WNK2	1	-0.685	0.853	-0.168	-0.12	-0.0454
PDPK1	1	-0.307	0.888	0.0853	-0.0192	-0.185
ZC3H11A	1	0.9	1	-0.0508	-0.0728	-0.118
EIF2AK1	1	0.719	0.983	0.0208	0.116	0.0999
EPHA4	1	0.0494	0.921	-0.0619	0.0541	-0.0787
PMVK	1	-0.667	0.855	0.00597	-0.0515	0.0186
UCK2	1	-0.0624	0.911	-0.119	-0.126	-0.197
GOLGA5	1	0.797	0.99	0.0156	-0.0371	-0.0491
OBSCN	1	-0.334	0.885	-0.0622	-0.111	-0.219
HIPK2	1	0.714	0.983	-0.0566	-0.0889	-0.0875
CNOT1	1	-0.876	0.835	0.174	0.104	0.0553
CSNK1G1	1	0.9	1	0.109	-0.0111	-0.102
ILK	1	0.789	0.99	0.00599	-0.0824	-0.12
ILK	2	-0.179	0.9	0.133	-0.0134	0.0222
ERN2	1	0.9	1	0.0938	-0.0418	-0.118
PLK1	1	-3.85 (active)	0.559	-0.0263	-0.0685	0.00298
PBK	1	0.85	0.995	0.0732	0.0179	-0.122
MAP4K2	1	-0.652	0.856	0.0303	-0.0399	-0.0758
PRKCH	1	-0.887	0.834	-0.0572	0.00114	-0.116
FASTK	1	0.303	0.945	-0.203	-0.124	-0.167
WHR1	1	0.9	1	-0.00618	-0.0401	-0.118
CDK4	1	0.9	1	0.124	-0.0521	-0.0501
FXR1	1	0.504	0.963	-0.0931	-0.0642	-0.151
TRPM6	1	0.446	0.958	-0.126	-0.0463	-0.117
RET	1	0.81	0.992	0.0603	-0.0558	-0.126
PTEN	1	-0.142	0.903	0.0722	-0.00218	0.031
MAPK4	1	-0.9	0.833	0.0966	-0.00177	0.00602
PRKG2	1	0.9	1	-0.0397	0.101	0.0663
EIF2AK3	1	0.251	0.94	-0.0676	-0.121	-0.13
PRP4K	1	-0.944	0.829	0.0101	0.0335	-0.0159

Next part; the last 5 above are carried over.
gene	pool no.	viability z-score, knock-down alone	viability, knock-down alone (DMSO) (fraction of control)	synergy score with trametinib	synergy score with BYL719	synergy score with cetuximab
PTEN	1	-0.142	0.903	0.0722	-0.00218	0.031
MAPK4	1	-0.9	0.833	0.0966	-0.00177	0.00602
PRKG2	1	0.9	1	-0.0397	0.101	0.0663
EIF2AK3	1	0.251	0.94	-0.0676	-0.121	-0.13
PRP4K	1	-0.944	0.829	0.0101	0.0335	-0.0159
PTK7	1	-3.21 (active)	0.619	-0.0479	-0.0699	0.0731
CDKN1C	1	0.9	1	0.0796	-0.0669	-0.118
PRKCA	1	0.846	0.995	0.159	-0.0355	-0.123
PRKAR1B	1	0.373	0.951	0.0342	-0.0123	-0.061
IKBKG	1	-0.294	0.889	-0.0501	-0.0961	-0.216
STK10	1	-1.7	0.758	0.0575	0.0745	0.0417
EPHB4	1	0.517	0.964	0.0836	0.0261	-0.00821
BMPR1B	1	0.49	0.962	-0.0104	-0.0481	-0.116
AK3	1	0.32	0.946	0.0885	-0.123	-0.158
AXIN2	1	0.78	0.989	0.00812	0.0111	-0.0735
MAPK9	1	0.232	0.938	-0.0992	-0.0992	-0.173
CAMK1G	1	0.0928	0.925	-0.00609	-0.081	-0.105
BMP2K	1	0.9	1	-0.0839	-0.0728	-0.118
CHUK	1	-0.00144	0.916	-0.0924	-0.112	-0.173
RAF1	1	-0.511	0.869	-0.00134	0.048	-0.108
HUNK	1	-2.11	0.72	0.0623	-0.0807	-0.0389
PGK1	1	0.317	0.946	0.036	-0.123	-0.16
MAK	1	-0.982	0.825	0.00194	0.0149	-0.0669
ATP23	1	0.367	0.951	0.0806	-0.0215	-0.162
